Results are given in words; binding and its absence hold for the method and conditions named. Binding seen in cells or lysates may run through a third protein. Some binding calls cover weakened binding; strength is not graded here. For some of these results: Where a sequence is shown, tags or fusion partners need not be part of it.
What was measured:
[1] = target: T1, HALO-CDK8 (Arabidopsis thaliana) (UniProt Q84TI6); test: pull-down; FLAG-tagged HSFA and HALO-tagged CDK8 co-translated in wheat germ extract; captured with MagneHalo beads; immunoblot against FLAG and HALO
T1 sequence: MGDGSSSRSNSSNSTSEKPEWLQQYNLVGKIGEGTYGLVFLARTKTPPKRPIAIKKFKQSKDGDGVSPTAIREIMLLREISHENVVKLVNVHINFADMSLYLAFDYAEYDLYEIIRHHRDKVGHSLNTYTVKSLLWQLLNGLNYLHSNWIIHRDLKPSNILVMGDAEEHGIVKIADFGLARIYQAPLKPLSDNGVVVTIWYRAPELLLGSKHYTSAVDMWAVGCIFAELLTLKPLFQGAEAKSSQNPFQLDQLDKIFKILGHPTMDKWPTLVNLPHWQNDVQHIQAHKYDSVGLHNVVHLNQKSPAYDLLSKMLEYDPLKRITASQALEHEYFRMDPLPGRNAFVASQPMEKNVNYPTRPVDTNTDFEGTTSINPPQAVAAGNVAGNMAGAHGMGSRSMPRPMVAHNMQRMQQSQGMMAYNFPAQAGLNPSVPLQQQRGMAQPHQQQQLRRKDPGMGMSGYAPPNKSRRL

Chains of the proteins cited; added tags and fusions are not shown.
UniProt O80982: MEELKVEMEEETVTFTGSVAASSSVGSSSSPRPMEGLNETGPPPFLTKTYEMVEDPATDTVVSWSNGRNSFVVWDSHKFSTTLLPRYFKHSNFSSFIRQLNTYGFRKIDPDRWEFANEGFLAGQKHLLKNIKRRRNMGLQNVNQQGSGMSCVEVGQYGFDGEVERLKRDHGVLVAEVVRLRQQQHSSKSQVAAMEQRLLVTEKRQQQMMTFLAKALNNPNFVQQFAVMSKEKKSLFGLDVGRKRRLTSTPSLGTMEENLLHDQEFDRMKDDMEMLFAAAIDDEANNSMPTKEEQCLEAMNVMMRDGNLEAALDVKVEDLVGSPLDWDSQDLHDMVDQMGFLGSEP

[2] = target: T2, C-RLuc-CDK8 fusion protein (CYCLIN-… KINASE 8) (Arabidopsis thaliana) (UniProt Q84TI6); test: split reporter; split Renilla luciferase complementation in transiently transformed Nicotiana benthamiana leaves; expression induced with 100 uM beta-estradiol for 24 h; 10 uM ViviRen substrate, bioluminescence detected for 30 min
T2 sequence: T1 sequence

[3] = target: FLAG-HSFA2 (transgenic A. thaliana) (Arabidopsis thaliana) (UniProt O80982); test: co-IP; as the co-IP from CDK8-MYC FLAG-HSFA2 A. thaliana seedlings, but sampled 28 h after the end of the ACC heat treatment; anti-FLAG beads; immunoblot against MYC and FLAG
[4] = target: FLAG-HSFA2 (transgenic A. thaliana) (Arabidopsis thaliana) (UniProt O80982); test: co-IP; total protein extracts of CDK8-MYC FLAG-HSFA2 A. thaliana seedlings sampled 0 to 4 h after the end of an ACC heat treatment; anti-FLAG (DYKDDDDK) paramagnetic beads, 50 mM Tris-HCl pH 7.5, 50 mM NaCl, Triton X-100; immunoblot against MYC and FLAG

FLAG-HSFA3 (in vitro translated) (from UniProt Q8GYY1 1-412)
binding [1]: binds

N-RLuc-HSFA3 (HEAT SHOCK …ON FACTOR A3) (from UniProt Q8GYY1 1-412)
binding [2]: binds

B1: CDK8-MYC (enzyme, UniProt Q84TI6 1-470)
chain: T1 sequence
binding [3]: no binding (condition: 28 h after ACC) | binding [4]: binds
